# The supplement of paper PMC3334620
# Over roughly 33,000 sequences, “E-score (-0.5 to 0.5)” has its median near -0.015; the highest 2% begin near 0.3. The list shows a part of the results.
# Target: T1, Abf1 (UniProt P14164)
# T1 sequence: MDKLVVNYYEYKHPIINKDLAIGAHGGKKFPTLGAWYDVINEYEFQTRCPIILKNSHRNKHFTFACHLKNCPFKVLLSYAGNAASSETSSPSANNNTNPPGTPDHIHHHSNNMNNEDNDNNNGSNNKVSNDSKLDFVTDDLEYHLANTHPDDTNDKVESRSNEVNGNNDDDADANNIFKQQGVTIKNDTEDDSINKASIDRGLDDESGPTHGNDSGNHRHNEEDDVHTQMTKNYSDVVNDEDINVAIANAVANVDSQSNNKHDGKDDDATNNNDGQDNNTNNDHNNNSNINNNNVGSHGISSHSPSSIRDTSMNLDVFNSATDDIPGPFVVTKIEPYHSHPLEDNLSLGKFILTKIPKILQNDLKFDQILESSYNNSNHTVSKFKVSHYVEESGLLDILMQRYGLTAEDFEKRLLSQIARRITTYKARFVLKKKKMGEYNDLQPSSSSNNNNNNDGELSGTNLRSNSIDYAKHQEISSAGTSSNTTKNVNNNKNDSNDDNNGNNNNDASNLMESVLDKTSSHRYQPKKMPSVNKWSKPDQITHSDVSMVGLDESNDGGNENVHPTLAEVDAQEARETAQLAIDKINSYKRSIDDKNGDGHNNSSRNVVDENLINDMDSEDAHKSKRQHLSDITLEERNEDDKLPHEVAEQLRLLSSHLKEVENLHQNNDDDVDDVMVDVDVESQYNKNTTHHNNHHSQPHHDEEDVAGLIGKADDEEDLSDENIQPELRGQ
# Experiment: PBM E-score (8-mer binding enrichment) (E-score (-0.5 to 0.5)); higher = stronger / more preferred TF binding
# Conditions: protein concentration: 200 nM; construct: GST-full length
# Procedure, shortened: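 Yeast transcription factors carrying a GST tag, as full-length proteins or DNA-binding domains, were produced by PURExpress in vitro transcription/translation. About 100-200 nM protein was applied to universal all-10-mer Agilent arrays, double-stranded by primer extension on fresh or once-stripped slides. Bound protein was detected with fluorescent anti-GST, and scans were normalised with masliner. The Universal PBM Analysis Suite gave each ungapped eight-base word, pooled with its reverse complement, an E-score, a modified Wilcoxon-Mann-Whitney statistic.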
row,Sequence,PBM E-score
1,GATAGCCC,-0.158
2,CCGGCGTA,0.0451
3,GATTTTTA,0.119
4,CCTTCGAG,-0.0998
5,GGTGAGTA,-0.0429
6,AGCAGCGC,-0.127
7,CCAGCGTC,-0.282
8,CACTCATC,0.175
9,CGCGCCAC,-0.0324
10,AGACCCAA,-0.264
11,AGTAGCAA,0.185
12,CAAAACCC,-0.0399
13,AGACCACG,-0.281
14,GTGGAAAA,0.0979
15,GTGCGAAA,0.0843
16,AGGACTTC,0.0132
17,AAACAAGA,-0.0172
18,ACATGCCT,-0.225
19,ATTCTGAG,-0.019
20,TATTGTCA,0.263
21,ATTTCACA,0.118
22,CATCTTCG,0.00373
23,GTCACTGA,0.253
24,CTTACAAA,-0.0513
25,ACCGCCGA,0.0103

row,Sequence,PBM E-score
1,GTCAATTA,0.144
2,ACGGTGCG,0.128
3,ACACGAAA,0.288
4,TAGTTATA,0.0993
5,CGCGATCC,-0.00259
6,GACAATGC,0.15
7,GAGATCCA,-0.0103
8,AATTCCGA,0.0805
9,AGATCTGG,-0.379
10,AGAGATTC,-0.0726
11,GGCAACAA,-0.227
12,CCCCGTAC,0.154
13,GGCTGCCA,-0.246
14,AACGGAGC,0.0288
15,CACACGTC,-0.0019
16,AAGTCACT,0.304
17,CAGATGTC,0.0203
18,ACTCCCGG,-0.158
19,GAGGAAGC,-0.196
20,ATGACAGC,0.199
21,CTCAGCTC,-0.133
22,CCTCCCTA,-0.271
23,GATGGAGA,-0.00795
24,AAGATCTC,0.0478
25,GGGAACAC,0.0308

# Some values from the entries so far.
# Value for CACTCATC under PBM E-score: 0.175
# Value for ATTTCACA under PBM E-score: 0.118
# Value for AGGACTTC under PBM E-score: 0.0132
# Value for CCTCCCTA under PBM E-score: -0.271
# Value for ACACGAAA under PBM E-score: 0.288

# Carrying on.

row,Sequence,PBM E-score
1,AATACTAG,0.0756
2,CGACCAAC,0.0229
3,ACGGGGCC,0.0234
4,CTTTAAGC,-0.0358
5,CTCGATCC,-0.0517
6,CTCTACCC,-0.119
7,AGACACCG,-0.149
8,ACCCATGC,0.00843
9,TCATCAGA,0.094
10,AACCAACG,-0.0962
11,TATTTCGA,0.272
12,GGTGGTAC,-0.0732
13,GAAATAGC,0.0369
14,TGATCAAA,0.103
15,ATAGTAAA,0.187
16,CAACCCGG,-0.26
17,CCAGTCAC,0.0589
18,CGTTACCC,-0.152
19,CTGCGGCA,-0.149
20,AACCGCCA,-0.267
21,AGCGAGCC,-0.135
22,AGAGAGTC,-0.351
23,ACCCAAGA,-0.0267
24,GACGTACA,0.0733
25,GTTTCAGA,0.124

row,Sequence,PBM E-score
1,CCGTCGGC,-0.0924
2,CAATGGTG,-0.354
3,ATGGTTCC,0.00886
4,CGACCGAG,-0.112
5,GTGGGAGA,0.114
6,CAACTTGC,-0.105
7,CATCGAGA,0.0311
8,AAAATTGC,-0.09
9,AGCTCTGG,-0.125
10,CGCGCACA,-0.0973
11,AAAATGTC,0.194
12,ACTCCGAC,-0.13
13,ATGCTAAC,-0.14
14,CTCAGAAG,-0.218
15,ACGGGTGG,0.0777
16,CATAACAA,0.138
17,AGACCGCT,-0.207
18,CCACCTAA,-0.0747
19,AAGTCGCC,-0.191
20,GTGGGCAA,-0.0734
21,CCTGGACC,-0.176
22,ACCCCACG,-0.275
23,ATCGGAAC,0.0182
24,GCGCTAAC,0.03
25,CAGGCAAA,0.00767

row,Sequence,PBM E-score
1,AAATCCCC,-0.106
2,CCAGAGCG,-0.0906
3,ACGTCTAC,0.0532
4,AACTTGGC,-0.0897
5,AGCCTGAA,-0.0124
6,ATGCTCGC,0.0107
7,CTAACTAA,0.0202
8,ACCATTGG,-0.0534
9,ACTGACGG,-0.0335
10,ACTCCCTC,-0.0922
11,GACGCATA,0.0893
12,CATGAATA,-0.0266
13,ACACACTC,-0.103
14,AACGCCTA,-0.0686
15,CGGGAACG,-0.153
16,ACCCCGAG,-0.147
17,AGTCCTCG,-0.0929
18,AGGCCTGC,-0.312
19,GGAGCGGA,-0.179
20,AAGTGTGG,-0.198
21,ATCACACA,0.195
22,CATCGACA,-0.117
23,ATCCTGGA,0.076
24,GGTCCATA,-0.181
25,ATGATTTC,0.275

row,Sequence,PBM E-score
1,CCCCCAGG,-0.315
2,GTGAAACA,0.0972
3,GCATTGAA,0.0569
4,GTAGCGAC,0.0621
5,CGTAAAAC,0.0953
6,CGACATTA,0.317
7,GTAGCCTA,-0.102
8,ACTCTGAC,-0.0634
9,GGCCTAGA,-0.0468
10,AGGTAGTC,-0.187
11,AGCCAGAC,-0.15
12,GGCCAGGA,-0.0402
13,CGTGTCCC,0.0114
14,ACTCATCG,-0.0101
15,GACAGGAC,-0.142
16,GCTAACGA,0.175
17,AACTTACA,-0.0171
18,CATAAATG,0.115
19,CATCTTTC,0.158
20,ACACCCAT,-0.00346
21,GGGGGATA,-0.194
22,GCGCTACA,0.0648
23,AAATGTCC,-0.0483
24,AATGGCGT,-0.201
25,AAATTCCC,-0.108

row,Sequence,PBM E-score
1,AAGGCACG,0.107
2,AAGTAAGA,-0.141
3,ATATAGAT,0.14
4,AACCCACG,0.0411
5,GTCGTGTA,0.239
6,TCACCCCA,0.204
7,AATATCCA,0.0292
8,AGTATGAC,0.186
9,CACCCCAG,-0.214
10,CCGTCAAC,0.154
11,AATCCACA,0.061
12,AGGTTGGG,-0.142
13,GAGTGGAC,-0.0943
14,GCGATGAC,0.21
15,AAAATGTG,0.059
16,CCGTGATA,0.283
17,AAGCTAGA,-0.0775
18,GGAAGATA,0.00856
19,CGCACCTC,-0.0211
20,AAACCAGG,-0.122
21,ACCCTCAC,-0.0629
22,GATTTCCA,-0.147
